The record followed here is PMC10478313.

Sequences of proteins named here, by UniProt entry; tags and fusion partners are left off.
UniProt Q15436: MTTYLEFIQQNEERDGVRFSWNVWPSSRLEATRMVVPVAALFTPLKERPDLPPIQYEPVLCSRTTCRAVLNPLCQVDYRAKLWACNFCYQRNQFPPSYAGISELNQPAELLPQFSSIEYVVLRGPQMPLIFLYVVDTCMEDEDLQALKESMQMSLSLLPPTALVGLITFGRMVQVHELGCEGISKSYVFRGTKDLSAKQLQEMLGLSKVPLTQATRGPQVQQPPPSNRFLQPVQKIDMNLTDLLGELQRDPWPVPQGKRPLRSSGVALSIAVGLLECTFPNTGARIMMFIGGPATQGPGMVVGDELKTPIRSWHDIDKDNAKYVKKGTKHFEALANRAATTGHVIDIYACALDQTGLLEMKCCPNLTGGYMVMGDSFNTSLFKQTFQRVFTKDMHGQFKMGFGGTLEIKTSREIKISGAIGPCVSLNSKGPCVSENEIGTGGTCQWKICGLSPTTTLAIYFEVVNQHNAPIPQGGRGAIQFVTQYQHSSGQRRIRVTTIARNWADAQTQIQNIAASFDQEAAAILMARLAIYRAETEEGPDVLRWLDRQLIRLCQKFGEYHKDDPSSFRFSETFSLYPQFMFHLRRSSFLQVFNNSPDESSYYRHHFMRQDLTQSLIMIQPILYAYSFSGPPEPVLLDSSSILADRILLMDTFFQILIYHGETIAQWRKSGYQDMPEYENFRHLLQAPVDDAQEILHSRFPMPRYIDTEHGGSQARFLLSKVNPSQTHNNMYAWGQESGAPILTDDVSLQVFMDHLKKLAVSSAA
UniProt P07355: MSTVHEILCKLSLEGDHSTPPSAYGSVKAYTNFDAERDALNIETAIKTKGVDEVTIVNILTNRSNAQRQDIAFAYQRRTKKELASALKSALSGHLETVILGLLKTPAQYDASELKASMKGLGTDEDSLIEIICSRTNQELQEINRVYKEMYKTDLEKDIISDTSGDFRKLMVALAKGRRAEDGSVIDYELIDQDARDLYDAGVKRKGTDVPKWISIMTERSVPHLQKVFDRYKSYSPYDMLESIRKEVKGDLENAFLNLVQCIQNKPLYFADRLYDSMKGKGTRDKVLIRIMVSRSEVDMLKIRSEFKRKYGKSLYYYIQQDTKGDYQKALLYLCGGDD

These are yes or no findings as the source states them, for the method shown. Binding seen in cells or lysates may run through a third protein. A yes stands for co-enrichment or nearness to the bait. Other partners may have been found.

For this assay, the target named is Sec23 homolog A (SEC23A) (human (endogenous in MKN45 and HGC27)) (UniProt Q15436). As to the kind of experiment: affinity purification with mass spectrometry; IP with anti-SEC23A antibody and IgG from MKN45 cells under ER stress; silver staining and mass spectrometry.

For “Annexin A2 (ANXA2) (from UniProt P07355 1-339)”, the binding entry is reported as “binds”.
